# Assay results published in patent US20230414709A1.
# Results are given in words; binding and its absence hold for the method and conditions named. Some results given as binding are weak or reduced against the parent protein; the word gives no strength.
# B1: wild-type human NGAL (Neutrophil Gelatinase-Associated Lipocalin), P80188 21-198 (ligand)
# chain: QDSTSDLIPAPPLSKVPLQQNFQDNQFQGKWYVVGLAGNAILREDKDPQKMYATIYELKEDKSYNVTSVLFRKKKCDYWIRTFVPGCQPGEFTLGNIKSYPGLTSYLVRVVSTNYNQHAMVFFKKVSQNREYFKITLYGRTKELTSELKENFIRFSKSLGLPENHIVFPVPIDQCIDG
# Columns and labels:
# [1] = biological target: T1, wild-type human NGAL (Neutrophil Gelatinase-Associated Lipocalin) (human), P80188; assay: Western blot, self-association (homodimer); conditions: remark: other sources report otherwise
# T1 chain: B1 chain
# [2] = biological target: T1, wild-type human NGAL (Neutrophil …); assay: Western blot of purified NGAL, homodimer band against monomer band; conditions: remark: other sources report otherwise
binder,measurement,setting,value
B1,binding,[1],binds
same,binding,[2],binds
